Test system: rat engineered heart tissue (EHT)
Test: Video-optical analysis of contractile parameters of spontaneously beating rat EHTs (50 nM epinephrine)

A T2-effective concentrations of 100 fold FTPC was found for `CC(C)(C)c1ccc(C(=O)CCCN2CCC(OC(c3ccccc3)c3ccccc3)CC2)cc1` [Ebastine] in this work.

From publication PMC4160570, “Effects of proarrhythmic drugs on relaxation time and beating pattern in rat engineered heart tissue” (Basic Research in Cardiology, 2014)
